Measurements: patent publication US11191749B2, “Pharmaceutical compositions for combination therapy” (GENFIT, priority 2017, dated 2021)
At least one structure is not confirmed: it was looked up by name or label, or the drawing left a doubt.

System: C57Bl/6J mice fed a CDAA+1% cholesterol diet
Assay: Chronic CDAA+1% cholesterol diet model of fibrosing NASH (12 weeks): hepatic collagen, fibrosis area, hepatic gene expression
Format: in vivo, mouse
Details: in diet 12 weeks, Elafibranor 1 or 3, NTZ 30 or 100 mg/kg/day, or combinations, vs CDAA+1% chol

CC(=O)Oc1ccccc1C(=O)Nc1ncc([N+](=O)[O-])s1 [NTZ, [2-[(5-nitro-1,3-thiazol-2-yl)carbamoyl]phenyl]ethanoate]
decreases: hepatic collagen content (FIG. 3) | fibrosis percentage (collagen surface to whole tissue, histology) (FIG. 4) | gene expression of hepatic markers of fibrosis (αSMA, CCR2, CCR5, Col1a2, MMP2, TIMP2, TGFβ1) (FIGS. 5 to 11)
